Measurements published in publication doi:10.1101/2020.03.12.988840.
No constants are given. Whether binding was seen depends on the method and setting. In cells and extracts the contact can be indirect. A result given as binding can be weak or reduced; the word gives no strength.

Amino acid sequences for entries named in this document (tags omitted). A change or cut given only in a name is not applied to a line headed by its entry.
UniProt Q20305: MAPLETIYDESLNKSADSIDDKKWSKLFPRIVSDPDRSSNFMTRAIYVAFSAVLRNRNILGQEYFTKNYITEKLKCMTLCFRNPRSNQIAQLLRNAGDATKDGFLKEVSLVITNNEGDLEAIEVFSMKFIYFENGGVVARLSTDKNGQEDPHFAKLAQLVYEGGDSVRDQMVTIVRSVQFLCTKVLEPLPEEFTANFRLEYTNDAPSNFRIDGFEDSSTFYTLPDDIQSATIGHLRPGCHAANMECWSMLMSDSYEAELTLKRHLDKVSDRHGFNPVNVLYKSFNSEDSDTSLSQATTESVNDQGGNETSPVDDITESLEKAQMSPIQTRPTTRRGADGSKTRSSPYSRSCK
UniProt O01820: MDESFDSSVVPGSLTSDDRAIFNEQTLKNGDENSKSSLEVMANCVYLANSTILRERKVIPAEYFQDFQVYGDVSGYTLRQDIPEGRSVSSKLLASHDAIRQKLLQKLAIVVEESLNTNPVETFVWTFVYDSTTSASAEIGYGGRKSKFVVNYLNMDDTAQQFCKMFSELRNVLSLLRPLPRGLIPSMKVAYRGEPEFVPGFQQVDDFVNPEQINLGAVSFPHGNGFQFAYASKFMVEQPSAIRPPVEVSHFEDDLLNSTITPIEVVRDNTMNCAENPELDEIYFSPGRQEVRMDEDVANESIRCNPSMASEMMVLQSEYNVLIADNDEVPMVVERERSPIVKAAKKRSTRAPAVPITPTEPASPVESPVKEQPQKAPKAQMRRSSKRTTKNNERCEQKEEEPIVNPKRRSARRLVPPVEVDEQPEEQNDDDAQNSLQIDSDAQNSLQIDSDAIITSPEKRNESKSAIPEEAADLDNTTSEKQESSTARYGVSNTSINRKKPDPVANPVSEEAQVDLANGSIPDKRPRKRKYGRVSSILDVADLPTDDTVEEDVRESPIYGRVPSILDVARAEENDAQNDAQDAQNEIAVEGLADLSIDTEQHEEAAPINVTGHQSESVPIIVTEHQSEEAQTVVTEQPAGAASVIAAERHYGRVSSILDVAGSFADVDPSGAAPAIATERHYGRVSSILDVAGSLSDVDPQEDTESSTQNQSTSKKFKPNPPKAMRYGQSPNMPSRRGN

Experiments:
HTP-1::GFP (C. elegans) = HTP-1::GFP (C. elegans) (UniProt Q20305); assay: co-IP
HTP-3::GFP (C. elegans) = HTP-3::GFP (C. elegans) (UniProt O01820); assay: co-IP

binding (HTP-1::GFP (C. elegans)): binds
binding (HTP-3::GFP (C. elegans)): binds
B1: PARG-1 (poly(ADP-ribose) glycohydrolase), endogenous (enzyme, UniProt Q867X0 1-781)
chain: MSKKFIELGDPVTQDEKDYEDYVGVGFAHQVPTMKRRKLTEHGNTTESKEDPEEPKSRDVFVSSQSSDESQEDSAENPEIAKEVSENCENLTETLKISNIESLDNVTERSEHTLDNHKSTEPMEEDVNNKSNIDVAINSDEDDELVLEENNKEMRDGEQVQQDLFADDQELIEYPGIMKDTTTQLDITDSEVETAQKMEMIEETEADSTFVGEDSKNQRQSGTTSDEVDADSQINLATKTVRTSSSSFLSTVSTCEAPAKGRARMYQKELEKHVIAFTEGNLTLQPDLNKVDPDRNYRYCTIPNFPASQGKLREDNRYGPKIVLPQRWREFDSRGRRRDSYFYFKRKLDGYLKCYKTTGYFMFVGLLHNMWEFDPDITYKLPALEMYYKEMSELVGREEVLEKFARVARIAKTAEDILPERIYRLVGDVESATLSHKQCAALVARMFFARPDSPFSFCRILSSDKSICVEKLKFLFTYFDKMSMDPPDGAVSFRLTKMDKDTFNEEWKDKKLRSLPEVEFFDEMLIEDTALCTQVDFANEHLGGGVLNHGSVQEEIRFLMCPEMMVGMLLCEKMKQLEAISIVGAYVFSSYTGYGHTLKWAELQPNHSRQNTNEFRDRFGRLRVETIAIDAILFKGSKLDCQTEQLNKANIIREMKKASIGFMSQGPKFTNIPIVTGWWGCGAFNGDKPLKFIIQVIAAGVADRPLHFCSFGEPELAAKCKKIIERMKQKDVTLGMLFSMINNTGLPHKHFEFYVFDRISTYLSSSEDVESSKSSPSVSRA
